Values from PubChem BioAssay AID602196 (INSERM, 2012).
Test: 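Modifiers of cisplatin sensitivity in A549 cells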. System: human A549 lung cancer cells. Reagents: siRNA pair against human genes. Timing: 48 h transfection before cisplatin; time from cisplatin to read-out not stated. Conditions: cisplatin at a dose killing half of control-siRNA cells; exact dose and duration not given. Detection: 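Shift in cisplatin death relative to control siRNA, from -50 (all cells die) to +50 (no cells die); siRNAs harmful on their own scored 0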. Scale: two-siRNA summed score (-2 to +2): higher = both siRNAs protect from cisplatin killing; -2 means both sensitise; mean protection from cisplatin (shift in death): higher = protection from cisplatin killing. Hit rule: 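Each siRNA scores 0 if harmful alone by LDH or WST-1, otherwise +1 if it reduces and -1 if it increases cisplatin killing; a gene is active when both siRNAs agree (sum +2 or -2)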. Calls: active = both siRNAs shift cisplatin killing the same way; inactive = no consistent shift, or siRNA harmful alone.
Here is an unselected part of about 23,000 deposited reagents. Of all reagents, 455 (2%) were called active. 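Active includes both protection and sensitisation; some change values fall well beyond the stated -50 to +50 range.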 A number with no mark means an inactive call. Not all columns of the deposit are shown. Not stated in the record: the amount of reagent.

gene knocked down	two-siRNA summed score (-2 to +2)	mean protection from cisplatin (shift in death) (%)
LOC389772	0	7.7
TUBD1	0	-4.9
RBAKDN	0	13.8
ATP23	0	1.8
SART3	0	2.6
LOC390352	1	20.1
LAPTM5	1	9.3
LOC399832	0	-2.1
MRPL54	0	3.5
KBTBD12	0	3.2
LOC441110	0	25.8
LOC440589	0	-3.4
ZNF138	1	5.9
KCNK10	-1	2.9
IL17RE	0	9.3
LOC391151	0	18.1
MGC13005	0	6.5
DPP8	0	-0.3
GPR141	0	-5.8
TIMM9	0	-0.4
CCDC43	0	9.8
LOC391356	0	25.8
LOC388817	0	27.3
UFD1P1	0	14.4
GUCA1A	-2 (active)	-21.5
LOC388954	-1	12.6
UBXN10	0	3.9
RAB9B	0	-11.5
GARS1	-1	-9.1
BMP6	-1	-8.6
ZBED10P	0	2.2
KIAA0962	0	-5.6
LOC284232	1	12.4
RGS9	0	0.1
LINC00115	0	6.5
DPCD	1	14.8
CLDN19	0	-2.2
LOC442566	1	4.4
ARHGEF12	1	7.3
KRT18P55	1	26.5
TJAP1P1	1	8.2
CFAP184	0	4.9
RBFA	0	8.4
CYP3A7	0	2
FBLN2	0	5.7
ASB10	0	-11.4
KCNK4	0	-16.1
MANEA	0	1
LOC144776	0	10.8
CPN1	1	-1.3
PDZD2	-1	-15.7
LOC439988	-1	-4.8
LOC391459	1	14.6
TRMT44	0	8
LOC401032	1	8.5
TMEM129	0	9.5
MMP10	-1	-12.2
LOC388491	1	10
LOC93082	0	-11.8
NWD1	1	12.1
LOC400214	0	9.5
GOLT1B	0	6
WDR62	0	6.2
PCMTD1	1	-5.8
OAZ1	0	-1.8
CHRM3	-1	-21.1
NHSL2	0	5.4
RSAD1	0	2
KYAT1	0	1.3
ARPC3	1	10
SLC44A5	2 (active)	19.2
MYO18B	0	3
ITFG2-AS1	0	3.5

3 successive records already listed, quoted:
gene knocked down	two-siRNA summed score (-2 to +2)	mean protection from cisplatin (shift in death) (%)
LOC144776	0	10.8
CPN1	1	-1.3
PDZD2	-1	-15.7
